From the supplement of paper PMC12282887
Values are raw readings; no control value is given beside them.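 For antimicrobials the highest concentration approximated the MIC. Most other compounds topped out at 500 µM, and known inducer-like compounds reached up to 1 mM. Inocula for deletion strains were tenfold smaller, and any well growing below 10% of the overall median was considered non-growing.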

Test system: Escherichia coli BW25113
Assay: growth (OD600 area under curve, 8 h) (OD600 x h); higher = more growth
Procedure: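 E. coli BW25113 reporter strains (wild type, ΔmarA, ΔsoxS, Δrob, each carrying one of 8 lux reporter plasmids) were grown in 40 µl LB in 384-well plates at 37°C, 800 rpm, with each compound at 4 two-fold concentrations, in biological duplicates. Growth is the baseline-corrected OD600 area under the curve over 8 h (0-8 h WT, 1-9 h deletion strains).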

Nc1ccc(C(=O)O)c(O)c1 [4-Aminosalicylic acid]
growth
Conditions | reporter plasmid: EVC | reporter plasmid: acrABp | reporter plasmid: marRABp | reporter plasmid: micFp | reporter plasmid: ompFp | reporter plasmid: robp | reporter plasmid: soxSp | reporter plasmid: tolCp
19.1 µg/ml, genetic background: wild type | 2.14 | 3.02 | 2.96 | 2.65 | 2.68 | 3 | 2.51 | 2.48
19.1 µg/ml, genetic background: ΔmarA | 2.64 | 3.83 | 3.16 | 2.82 | 3.03 | 3.18 | 2.15 | 2.37
19.1 µg/ml, genetic background: Δrob | 2.48 | 2.85 | 2.896 | 2.57 | 2.23 | 2.31 | 2.17 | 2.37
19.1 µg/ml, genetic background: ΔsoxS | 2.53 | 2.71 | 3.05 | 2.19 | 2.56 | 3.16 | 2.75 | 2.45
38.3 µg/ml, genetic background: wild type | 2.08 | 3.05 | 3.04 | 2.75 | 2.77 | 2.86 | 2.52 | 2.53
38.3 µg/ml, genetic background: ΔmarA | 2.6 | 3.66 | 3.01 | 2.55 | 2.88 | 2.8 | 2.03 | 2.39
38.3 µg/ml, genetic background: Δrob | 2.41 | 2.765 | 2.85 | 2.5 | 2.19 | 2.39 | 2.1 | 2.22
38.3 µg/ml, genetic background: ΔsoxS | 2.62 | 2.67 | 3.1 | 2.33 | 2.72 | 2.84 | 2.74 | 2.54
76.6 µg/ml, genetic background: wild type | 1.9269 | 3.54 | 3.47 | 2.68 | 2.98 | 3.082 | 2.349 | 2.56
76.6 µg/ml, genetic background: ΔmarA | 2.96 | 4.74 | 4.2 | 2.88 | 3.45 | 4.27 | 2.41 | 2.79
76.6 µg/ml, genetic background: Δrob | 2.47 | 3.05 | 3.35 | 2.57 | 2.43 | 2.82 | 2.06 | 2.26
76.6 µg/ml, genetic background: ΔsoxS | 2.39 | 2.79 | 3.39 | 2.08 | 2.85 | 3.45 | 2.85 | 2.37
153.1 µg/ml, genetic background: wild type | 1.83 | 3.08 | 3.026 | 2.42 | 2.7 | 2.86 | 2.18 | 2.52
153.1 µg/ml, genetic background: ΔmarA | 3.21 | 4.21 | 3.71 | 2.8 | 3.08 | 4.17 | 2.33 | 2.79
153.1 µg/ml, genetic background: Δrob | 2.41 | 2.77 | 3.31 | 2.45 | 2.36 | 2.49 | 1.9 | 2.27
153.1 µg/ml, genetic background: ΔsoxS | 2.37 | 2.73 | 3 | 1.81 | 2.57 | 3.05 | 2.65 | 2.28
